Experimental data taken from publication PMC9905541.
No constants are given. Whether binding was seen depends on the method and setting. In cells and extracts the contact can be indirect. Some binding calls cover weakened binding; strength is not graded here.

Chains of the proteins cited; added tags and fusions are not shown.
UniProt Q86WV6: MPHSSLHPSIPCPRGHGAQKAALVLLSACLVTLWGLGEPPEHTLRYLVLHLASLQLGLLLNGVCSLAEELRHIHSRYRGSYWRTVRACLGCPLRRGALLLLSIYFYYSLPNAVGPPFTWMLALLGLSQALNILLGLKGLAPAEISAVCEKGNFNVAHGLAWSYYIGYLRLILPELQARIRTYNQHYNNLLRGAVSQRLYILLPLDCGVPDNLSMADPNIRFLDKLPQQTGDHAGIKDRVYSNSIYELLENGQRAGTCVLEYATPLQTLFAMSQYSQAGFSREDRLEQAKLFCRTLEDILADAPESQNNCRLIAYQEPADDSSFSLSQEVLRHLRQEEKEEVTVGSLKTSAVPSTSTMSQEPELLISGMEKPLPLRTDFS
UniProt P84078: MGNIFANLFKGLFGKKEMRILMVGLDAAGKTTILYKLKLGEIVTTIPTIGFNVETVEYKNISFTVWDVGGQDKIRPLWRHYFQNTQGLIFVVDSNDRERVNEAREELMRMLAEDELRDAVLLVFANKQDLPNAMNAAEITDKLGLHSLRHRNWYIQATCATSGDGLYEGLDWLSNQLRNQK
UniProt P84077: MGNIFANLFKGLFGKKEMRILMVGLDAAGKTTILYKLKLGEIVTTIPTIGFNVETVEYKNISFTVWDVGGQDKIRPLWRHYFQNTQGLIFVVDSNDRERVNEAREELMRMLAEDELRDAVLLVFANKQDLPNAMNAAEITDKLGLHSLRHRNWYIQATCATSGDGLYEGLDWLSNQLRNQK

Legend:
[1] = molecular target: T1, STING, endogenous in mouse peritoneal macrophages (mouse (endogenous in primary peritoneal macrophages)) (UniProt Q3TBT3); assay: co-IP; endogenous proteins in HSV-1-infected mouse peritoneal macrophages; IP lysis buffer 50 mM Tris-HCl pH 7.4, 50 mM EDTA, 150 mM NaCl, 1% NP-40; indicated antibodies with Protein A/G PLUS-Agarose overnight at 4 °C; immunoblot
T1 sequence: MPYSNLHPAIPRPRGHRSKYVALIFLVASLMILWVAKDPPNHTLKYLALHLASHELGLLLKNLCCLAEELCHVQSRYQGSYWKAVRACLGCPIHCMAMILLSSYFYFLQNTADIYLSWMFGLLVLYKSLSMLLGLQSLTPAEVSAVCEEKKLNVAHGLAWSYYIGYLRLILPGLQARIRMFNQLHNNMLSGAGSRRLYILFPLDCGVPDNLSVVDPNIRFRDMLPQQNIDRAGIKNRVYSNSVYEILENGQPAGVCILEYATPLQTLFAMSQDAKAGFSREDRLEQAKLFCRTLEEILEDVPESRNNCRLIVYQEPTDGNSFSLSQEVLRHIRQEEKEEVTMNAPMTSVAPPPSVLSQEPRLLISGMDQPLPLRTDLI

[2] = molecular target: STING-HA (stimulator of interferon gene) (UniProt Q86WV6); assay: co-IP; HEK293T cells co-transfected with tagged STING and ARF1-Flag; in Fig. 7f followed by myristic acid treatment; IP lysis buffer 50 mM Tris-HCl pH 7.4, 50 mM EDTA, 150 mM NaCl, 1% NP-40; indicated antibodies with Protein A/G PLUS-Agarose overnight at 4 °C; immunoblot
[3] = molecular target: STING-Myc (stimulator of interferon gene) (UniProt Q86WV6); assay: as above

“ARF1, endogenous in mouse peritoneal macrophages (from UniProt P84078 1-181)” was tested. Which binding [1] did it give?
The binding was “binds”.

Which binding [2] does the source give for “ARF1-Flag (ADP-ribosylation factor 1, wild type) (from UniProt P84077 1-181)” here?
The binding was “binds”.

What about the binding [3] of the same substance?
The binding was “binds”.
